# The shares of active, inactive and inconclusive entries below differ from those in the screen. For some assays here: A potency beside an inconclusive call is a rough fit, not a confirmed value. Active and inactive are the calls of the source. The calls were made as follows: active = hit-call score of the fitted dose curve at least 0.9, where 1 is the maximum; inconclusive = response in the unintended direction; inactive = score below 0.9.
# Protein sequences, listed by entry. Tags and fused reporters are not part of them. Lines headed by an entry give the natural chain unless they say otherwise; changes in a name come on top.
# UniProt P21731: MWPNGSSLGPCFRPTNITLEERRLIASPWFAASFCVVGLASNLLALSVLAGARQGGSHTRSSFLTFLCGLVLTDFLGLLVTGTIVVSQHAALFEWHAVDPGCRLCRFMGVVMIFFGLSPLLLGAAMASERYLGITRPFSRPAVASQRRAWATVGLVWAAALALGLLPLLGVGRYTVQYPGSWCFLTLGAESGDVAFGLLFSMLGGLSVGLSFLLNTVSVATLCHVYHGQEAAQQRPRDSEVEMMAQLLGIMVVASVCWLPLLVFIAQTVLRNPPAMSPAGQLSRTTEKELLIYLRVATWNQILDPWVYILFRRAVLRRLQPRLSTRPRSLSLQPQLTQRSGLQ
# UniProt Q01959, whole entry, looked up: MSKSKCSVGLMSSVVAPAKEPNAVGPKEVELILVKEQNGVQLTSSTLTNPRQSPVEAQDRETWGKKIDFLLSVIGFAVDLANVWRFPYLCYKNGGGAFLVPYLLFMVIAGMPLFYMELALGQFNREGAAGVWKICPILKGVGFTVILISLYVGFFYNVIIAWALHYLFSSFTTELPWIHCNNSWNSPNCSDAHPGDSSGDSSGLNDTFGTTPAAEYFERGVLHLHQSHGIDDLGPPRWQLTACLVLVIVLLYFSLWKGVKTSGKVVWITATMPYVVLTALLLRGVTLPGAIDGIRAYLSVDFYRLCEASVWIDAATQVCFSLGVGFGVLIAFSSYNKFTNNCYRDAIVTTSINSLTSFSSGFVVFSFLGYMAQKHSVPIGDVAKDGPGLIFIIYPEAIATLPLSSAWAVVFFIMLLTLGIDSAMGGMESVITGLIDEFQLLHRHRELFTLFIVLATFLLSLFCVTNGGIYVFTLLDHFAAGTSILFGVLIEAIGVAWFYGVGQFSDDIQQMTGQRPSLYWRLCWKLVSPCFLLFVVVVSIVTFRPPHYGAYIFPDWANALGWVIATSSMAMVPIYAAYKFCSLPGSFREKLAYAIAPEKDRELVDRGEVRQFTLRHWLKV
# UniProt P24666: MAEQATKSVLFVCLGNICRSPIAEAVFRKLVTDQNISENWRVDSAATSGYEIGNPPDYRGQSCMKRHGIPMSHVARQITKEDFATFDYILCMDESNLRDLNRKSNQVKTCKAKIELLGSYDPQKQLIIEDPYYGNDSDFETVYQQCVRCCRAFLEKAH
# UniProt P29323: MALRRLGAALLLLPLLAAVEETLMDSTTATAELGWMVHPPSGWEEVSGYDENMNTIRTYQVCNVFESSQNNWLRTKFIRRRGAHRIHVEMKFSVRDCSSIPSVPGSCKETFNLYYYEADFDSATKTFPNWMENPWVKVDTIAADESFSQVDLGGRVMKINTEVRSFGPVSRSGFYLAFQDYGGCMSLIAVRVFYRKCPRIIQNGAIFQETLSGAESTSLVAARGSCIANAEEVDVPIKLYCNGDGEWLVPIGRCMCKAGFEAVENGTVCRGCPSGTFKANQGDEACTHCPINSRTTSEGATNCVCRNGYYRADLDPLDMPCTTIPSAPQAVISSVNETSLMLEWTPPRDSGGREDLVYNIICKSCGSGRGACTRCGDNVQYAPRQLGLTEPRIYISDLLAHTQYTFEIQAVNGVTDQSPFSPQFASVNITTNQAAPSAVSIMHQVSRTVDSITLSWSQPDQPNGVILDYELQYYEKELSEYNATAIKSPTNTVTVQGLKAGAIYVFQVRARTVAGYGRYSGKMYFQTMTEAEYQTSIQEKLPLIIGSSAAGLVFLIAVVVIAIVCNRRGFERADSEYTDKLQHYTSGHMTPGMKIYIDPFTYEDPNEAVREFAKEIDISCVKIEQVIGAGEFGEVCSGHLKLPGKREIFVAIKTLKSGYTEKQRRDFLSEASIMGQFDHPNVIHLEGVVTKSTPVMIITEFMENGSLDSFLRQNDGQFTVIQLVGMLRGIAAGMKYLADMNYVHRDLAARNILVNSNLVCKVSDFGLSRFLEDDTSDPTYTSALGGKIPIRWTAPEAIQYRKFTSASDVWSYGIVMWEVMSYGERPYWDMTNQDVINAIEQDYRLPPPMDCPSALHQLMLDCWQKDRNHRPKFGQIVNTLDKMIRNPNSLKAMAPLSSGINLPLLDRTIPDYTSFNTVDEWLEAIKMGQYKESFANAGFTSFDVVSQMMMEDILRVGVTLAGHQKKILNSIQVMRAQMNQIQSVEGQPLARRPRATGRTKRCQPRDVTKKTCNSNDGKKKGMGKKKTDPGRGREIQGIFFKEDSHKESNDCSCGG
# UniProt P43378: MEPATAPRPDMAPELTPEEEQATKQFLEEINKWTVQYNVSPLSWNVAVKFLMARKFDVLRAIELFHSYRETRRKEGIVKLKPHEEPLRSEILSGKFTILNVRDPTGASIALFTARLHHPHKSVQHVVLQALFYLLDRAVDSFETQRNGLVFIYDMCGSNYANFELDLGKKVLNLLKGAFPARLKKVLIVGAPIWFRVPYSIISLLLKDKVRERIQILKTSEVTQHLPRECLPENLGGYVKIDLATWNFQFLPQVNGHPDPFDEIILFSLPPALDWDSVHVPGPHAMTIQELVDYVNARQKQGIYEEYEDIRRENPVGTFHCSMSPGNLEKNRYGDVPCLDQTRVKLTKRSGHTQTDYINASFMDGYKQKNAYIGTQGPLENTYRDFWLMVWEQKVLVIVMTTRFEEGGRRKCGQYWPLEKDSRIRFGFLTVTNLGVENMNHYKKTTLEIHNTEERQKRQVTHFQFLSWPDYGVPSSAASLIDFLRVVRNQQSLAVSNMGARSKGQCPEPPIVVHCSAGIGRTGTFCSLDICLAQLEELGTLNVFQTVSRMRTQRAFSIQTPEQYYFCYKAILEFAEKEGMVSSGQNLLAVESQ
# UniProt P04629: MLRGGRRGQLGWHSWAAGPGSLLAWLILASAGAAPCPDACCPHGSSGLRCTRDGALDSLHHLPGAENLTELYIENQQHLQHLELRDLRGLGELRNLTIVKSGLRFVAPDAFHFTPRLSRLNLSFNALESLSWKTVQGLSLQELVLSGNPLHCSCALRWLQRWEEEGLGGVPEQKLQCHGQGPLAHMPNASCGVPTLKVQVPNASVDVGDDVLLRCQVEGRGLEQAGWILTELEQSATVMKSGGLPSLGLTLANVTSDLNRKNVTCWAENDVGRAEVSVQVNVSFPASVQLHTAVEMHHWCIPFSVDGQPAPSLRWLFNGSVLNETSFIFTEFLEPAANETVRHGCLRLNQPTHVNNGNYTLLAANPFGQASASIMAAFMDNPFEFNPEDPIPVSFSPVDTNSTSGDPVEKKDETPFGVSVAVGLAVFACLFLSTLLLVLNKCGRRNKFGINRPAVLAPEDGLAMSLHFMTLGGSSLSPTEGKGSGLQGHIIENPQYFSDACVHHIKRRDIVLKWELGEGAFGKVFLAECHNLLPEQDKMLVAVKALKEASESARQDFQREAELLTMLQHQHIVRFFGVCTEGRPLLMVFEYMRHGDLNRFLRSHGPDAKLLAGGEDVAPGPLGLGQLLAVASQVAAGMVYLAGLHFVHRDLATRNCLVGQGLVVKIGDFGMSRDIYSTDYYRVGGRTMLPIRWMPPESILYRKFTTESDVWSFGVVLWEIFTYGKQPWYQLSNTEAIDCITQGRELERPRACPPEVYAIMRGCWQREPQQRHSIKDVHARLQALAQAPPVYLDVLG
# Tests used:
# [1] = ATG_XTT_Cytotoxicity_XSP2: Cytotoxicity Assessment in the Attagene TRANS-FACTORIAL Multi-Species (XSP2) HepG2 Assay (AID 2283837)
# How it was run: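 HepG2 cells, transiently transfected with multiple reporter constructs, exposed to chemical for 24 h. Cell number assessed with XTT fluorescence read-out; loss of signal fitted relative to DMSO.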
# [2] = target: human Thromboxane A2 Receptor (TXA2), TBXA2R (gene 6915) (UniProt P21731); assay: NVS_GPCR_hTXA2: NovaScreen (NVS) G Protein-Coupled Receptor Assay for human Thromboxane A2 Receptor (TXA2) (AID 2283282);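 also: actives reduce bound radioligand signal relative to DMSO baseline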
# How it was run: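 Screening ran at 25 uM in duplicate, with concentration series for confirmed actives. Each test measures radioligand binding to human platelet protein after 1 h, cell-free, using filter-based scintillation detection of signal loss relative to DMSO.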
# [3] = IUF_NPC1_cytotoxicity_72hr: Cytotoxicity Assessment at 72 hours in the Leibniz Research Institute for Environmental Medicine (IUF) Neural Progenitor Cell Proliferation Assay (NPC1) (AID 2284332);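 also: rising LDH signal means more cytotoxicity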
# How it was run: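 hNPC spheres (fetal brain, gestational week 16-19) grown under proliferative EGF/FGF conditions, pH 7.2-7.6, were treated continuously for 72 h. Cytotoxicity came from LDH-coupled resazurin fluorescence in each well's supernatant.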
# [4] = ArunA_NOG_NucleusCount: ArunA Biomedical's Neurite Outgrowth (NOG) Assay for Nucleus Count (AID 2283756)
# How it was run: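 Human H9-derived differentiated neurons were exposed for 48 h right after seeding. Hoechst-stained nuclei gated by size and intensity were counted by automated high-content imaging as viable neurons. Loss of signal vs DMSO.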
# [5] = ArunA_NOG_BranchPointsPerNeurite: ArunA Biomedical's Neurite Outgrowth (NOG) Assay for Branch Points Per Neurite (AID 2283759)
# How it was run: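 Automated image analysis traced neurites (processes >10 um) from valid cell bodies after Hoechst and βIII-tubulin staining. hNN cells from H9 embryonic stem cells, 48 h exposure. Fitted bidirectionally against DMSO.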
# [6] = VALA_TUBHUV_Agonist_CellCount: Viability Assessment in the VALA Sciences human Umbilical Vein Endothelial Tubule Formation (TUBHUV) Agonism Assay (AID 2284309)
# How it was run: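 HUVEC co-cultured 1:3 with HDF for 3 days in 10 ng/ml VEGF, then compounds added in VEGF medium for a further 3 days (72 h). Nuclear-stain/CD31 imaging cell count. Positive-direction fit versus 0.1% DMSO vehicle.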
# [7] = VALA_TUBIPS_Agonist_TubuleLength: VALA Sciences human iPS-derived Endothelial Tubule Formation (TUBIPS) Agonism Assay (AID 2284311)
# How it was run: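 Human iPS-derived endothelial cells were exposed to compound for 72 h. Tubule formation was imaged by high-content fluorescence and scored as gain of signal relative to DMSO vehicle (agonist mode).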
# [8] = VALA_TUBIPS_Antagonist_TubuleLength: VALA Sciences human iPS-derived Endothelial Tubule Formation (TUBIPS) Antagonist Assay (AID 2284313)
# How it was run: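 Cells grown 3 days with 10 ng/ml VEGF, then exposed to compounds in VEGF medium for another 3 days. After fixation, nuclear stain and CD31 immunofluorescence imaging gave mean total tubule length against 0.1% DMSO; suramin (100 uM) inhibition control.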
# [9] = VALA_MIGHUV2_CellCount: Viability Assessment in the VALA Sciences human Umbilical Vein Endothelial Cell Migration (MIGHUV) Assay, Area of Scratch Wound after Recovery (AID 2284314)
# How it was run: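 Scratch-wounded HUVEC monolayers received test chemical within 30 min, 6-point concentration response in triplicate, 0.1 % DMSO vehicle. After 24 h wound recovery, fixed cells were Hoechst-stained and nuclei imaged; loss of signal versus DMSO indicates reduced viability.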
# [10] = VALA_MIGHUV2_Bcatenin: VALA Sciences human Umbilical Vein Endothelial Cell Migration (MIGHUV) Assay, Nuclear Translocation of beta-Catenin after Recovery (AID 2284315)
# How it was run: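 HUVEC (4000 cells/well) scratch-wounded, dosed within 30 min over 6 concentrations in triplicate, recovered 24 h. After fixation, Hoechst and anti-beta-catenin immunofluorescence imaged for nuclear CTNB. Gain of signal versus 0.1% DMSO.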
# [11] = VALA_MIGHUV2_WoundArea: VALA Sciences human Umbilical Vein Endothelial Cell Migration (MIGHUV) Assay, Area of Scratch Wound after Recovery (AID 2284316)
# How it was run: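 HUVEC seeded at 9000 cells/well, scratched after 24 h; test chemical added within 30 min, 6-point concentration response in triplicate (0.1% DMSO vehicle). After 24 h wound recovery, cells fixed and Hoechst-stained nuclei in wound area imaged; Cytochalasin D reference control.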
# [12] = VALA_TUBHUV_Antagonist_TubuleLength: VALA Sciences human Umbilical Vein Endothelial Tubule Formation (TUBHUV) Antagonism Assay (AID 2284325)
# How it was run: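 HUVEC–HDF co-culture (1:3) pre-grown 3 days with 10 ng/ml VEGF, then 3 days with compound plus VEGF. Fixed, nuclear and CD31 stained; total tubule length by imaging versus 0.1% DMSO; suramin 100 uM positive control.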
# [13] = VALA_MIGHUV1_ScratchOnly_CellCount: Viability Assessment in the VALA Sciences human Umbilical Vein Endothelial Cell Migration (MIGHUV) Assay, Scratch Wound Inhibited Recovery (AID 2284327)
# How it was run: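 HUVEC scratched after 24 h culture, chemical added within 30 min at 6 concentrations in triplicate (0.1% DMSO vehicle). After 24 h recovery, fixed cells were counted by Hoechst nuclear imaging in the wound area.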
# [14] = VALA_TUBIPS_Antagonist_CellCount: Viability Assessment in the VALA Sciences human iPS-derived Endothelial Tubule Formation (TUBIPS) Antagonism Assay (AID 2284335)
# [15] = VALA_TUBHUV_Agonist_TubuleLength: VALA Sciences human Umbilical Vein Endothelial Tubule Formation (TUBHUV) Agonism Assay (AID 2284337)
# How it was run: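 HUVEC co-cultured with fibroblasts (1:3) 3 days in 10 ng/ml VEGF, then 3 days with compound plus VEGF; 0.1 % DMSO neutral control. Fixed, nuclear and CD31 stained; tubule length by fluorescence imaging.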
# [16] = target: human Dopamine Transporter (DAT), SLC6A3 (gene 6531) (UniProt Q01959); assay: NVS_TR_hDAT: NovaScreen (NVS) Transporter Assay for human Dopamine Transporter (DAT) (AID 2283374);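 also: activity means loss of bound radioligand signal relative to DMSO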
# How it was run: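 Cell-free radioligand binding to extracted human DAT protein, read 1 h after dosing by filter-based scintillation counting. Loss of specific binding scored against DMSO baseline; primary screen in duplicate at 25 uM, actives then run in concentration series.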
# [17] = target: human Acid Phosphatase 1 (ACP1), ACP1 (gene 52) (UniProt P24666); assay: NVS_ENZ_hACP1: NovaScreen (NVS) Enzymatic Assay for human Acid Phosphatase 1 (ACP1) (AID 2283136)
# How it was run: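 Recombinant enzyme expressed in Sf9 cells, tested cell-free; activity read by fluorescence with electrophoretic mobility shift separation of substrate and product, 1.5 h after dosing. Primary screen in duplicate at 25 uM, actives then run in concentration series; loss of signal versus DMSO.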
# [18] = target: human Ephrin type-B Receptor 2 (EphB2), EPHB2 (gene 2048) (UniProt P29323); assay: NVS_ENZ_hEphB2: NovaScreen (NVS) Enzymatic Assay for human Ephrin type-B Receptor 2 (EphB2) (AID 2283156)
# How it was run: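 Recombinant kinase with fluorescent substrate, product separated by electrophoretic mobility shift, read 1 h after dosing. Duplicate 25 uM screen, then singleton concentration-response to 50 uM max; loss of signal versus DMSO.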
# [19] = target: human Protein Tyrosine Phosphatase Non-receptor Type 9 (PTPN9), PTPN9 (gene 5780) (UniProt P43378); assay: NVS_ENZ_hPTPN9: NovaScreen (NVS) Enzymatic Assay for human Protein Tyrosine Phosphatase Non-receptor Type 9 (PTPN9) (AID 2283209)
# How it was run: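 Sf9-expressed enzyme in a cell-free assay, fluorescence read 1.33 h after dosing with mobility-shift separation of substrate and product. Tested at 25 uM in duplicate, then up to 50 uM; signal loss versus DMSO.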
# [20] = target: human Tropomyosin Receptor Kinase A (TRKA), NTRK1 (gene 4914) (UniProt P04629); assay: NVS_ENZ_hTrkA: NovaScreen (NVS) Enzymatic Assay for human Tropomyosin Receptor Kinase A (TRKA) (AID 2283224)
# How it was run: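 Recombinant human TrkA activity read after 1 h by fluorescence with electrophoretic mobility shift separating substrate and product. Primary screen in duplicate at 25 uM; actives were rerun in concentration-response up to 50 uM. Loss of signal versus DMSO.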
structure (smiles),measurement,setting,value
N#Cc1c[nH]cc1-c1cccc2c1OC(F)(F)O2,AC50,[1],inconclusive: 100 µM
CCOP(=S)(OCC)SCn1nnc2ccccc2c1=O,AC50,[2],inconclusive: 6.2 µM
Cc1ccccc1OP(=O)(Oc1ccccc1C)Oc1ccccc1C,AC50,[3],inconclusive: 16.7 µM
COCc1cnc(C2=NC(C)(C(C)C)C(=O)N2)c(C(=O)O)c1 (stereo not given),AC50,[4],inconclusive: 50 µM
same,AC50,[5],inconclusive: 0.12 µM
same,AC50,[6],inconclusive: 9.92 µM
same,AC50,[7],inconclusive: 11.7 µM
same,AC50,[8],inconclusive: 0.00238 µM
same,AC50,[9],inconclusive: 0.0763 µM
same,AC50,[10],inconclusive: 0.0536 µM
same,outcome,[11],inactive
same,AC50,[12],inconclusive: 0.102 µM
same,outcome,[13],inactive
same,AC50,[14],inconclusive: 9.92 µM
same,AC50,[15],inconclusive: 0.00129 µM
Clc1ccc(Oc2ccccc2)cc1,outcome,[16],inactive
O=C(O)C(F)(F)C(F)(F)C(F)(F)C(F)(F)C(F)(F)C(F)(F)C(F)(F)C(F)(F)F,outcome,[17],inactive
same,AC50,[18],inconclusive: 25 µM
same,AC50,[19],active: 25 µM
same,outcome,[20],inactive

# A different layout for some results above.
structure (smiles) | measurement | setting | value
O=C(O)C(F)(F)C(F)(F)C(F)(F)C(F)(F)C(F)(F)C(F)(F)C(F)(F)C(F)(F)F | outcome | [17] | inactive
same | AC50 | [18] | inconclusive: 25 µM

# Reference: PubChem BioAssay (EPA / NIEHS)
